Counter-ions that a name gives are not always drawn. Some of the results follow. Hit calls seldom repeat between salt and free forms of one compound.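 Kinases were expressed as nanoluciferase fusions in K562 cells and luminescence was read every 4 h between 2 and 18 h as percent of control, DMSO set to 100% and a positive control to 0%. A time point counts as decreased when the signal drops significantly (2 sigma). The hit call is the authors' own, does not follow from the count of time points alone, and its rule is not shown.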
How the values were obtained:
Experiment in all cases: kinase-Nluc reporter destabilization hit call (1 = scored as downregulated) (binary); higher = compound decreases kinase abundance
Details in all cases: K562; 2-18 h
ERN1 = ERN1 (UniProt O75460)
FGFR1 = FGFR1 (UniProt P11362)
FGFR2 = FGFR2 (UniProt P21802)
FGFR3 = FGFR3 (UniProt P22607)
FGR = FGR (UniProt P09769)
FLT3 = FLT3 (UniProt P36888)
FYN = FYN (UniProt P06241)
GSK3A = GSK3A (UniProt P49840)
HER2 = HER2 (UniProt P04626)
INSRR = INSRR (UniProt P14616)

By UniProt entry, the sequences of proteins in these tests, tags left out. Where a name states a change or a piece, a line headed by the entry shows the natural chain unless it says otherwise.
UniProt O75460: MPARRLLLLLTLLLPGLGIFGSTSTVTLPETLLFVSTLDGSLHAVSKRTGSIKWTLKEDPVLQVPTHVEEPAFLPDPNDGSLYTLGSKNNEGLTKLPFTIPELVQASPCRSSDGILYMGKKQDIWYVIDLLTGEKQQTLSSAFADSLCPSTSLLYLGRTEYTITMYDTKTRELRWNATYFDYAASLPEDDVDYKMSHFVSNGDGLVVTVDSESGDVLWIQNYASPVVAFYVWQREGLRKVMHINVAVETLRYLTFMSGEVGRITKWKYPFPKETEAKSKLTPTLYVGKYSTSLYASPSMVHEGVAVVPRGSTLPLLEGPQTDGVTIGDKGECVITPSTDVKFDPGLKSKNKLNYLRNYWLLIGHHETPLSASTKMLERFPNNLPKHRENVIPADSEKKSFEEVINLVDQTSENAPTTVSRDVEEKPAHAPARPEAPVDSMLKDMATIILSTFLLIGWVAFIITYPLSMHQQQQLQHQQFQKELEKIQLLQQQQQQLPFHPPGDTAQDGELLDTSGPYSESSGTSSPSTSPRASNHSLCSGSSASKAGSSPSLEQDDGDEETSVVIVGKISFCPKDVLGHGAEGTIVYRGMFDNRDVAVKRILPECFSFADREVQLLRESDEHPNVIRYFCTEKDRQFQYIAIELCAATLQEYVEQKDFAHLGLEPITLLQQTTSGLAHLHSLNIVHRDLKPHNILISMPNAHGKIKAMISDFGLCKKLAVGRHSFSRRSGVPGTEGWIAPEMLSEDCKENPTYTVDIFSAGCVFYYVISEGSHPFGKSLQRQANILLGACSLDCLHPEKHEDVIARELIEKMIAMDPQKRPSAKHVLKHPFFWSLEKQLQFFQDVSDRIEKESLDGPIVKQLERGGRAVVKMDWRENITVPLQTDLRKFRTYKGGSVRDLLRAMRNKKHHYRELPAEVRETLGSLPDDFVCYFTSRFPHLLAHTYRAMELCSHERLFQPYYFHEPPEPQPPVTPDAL
UniProt P11362, whole entry, looked up: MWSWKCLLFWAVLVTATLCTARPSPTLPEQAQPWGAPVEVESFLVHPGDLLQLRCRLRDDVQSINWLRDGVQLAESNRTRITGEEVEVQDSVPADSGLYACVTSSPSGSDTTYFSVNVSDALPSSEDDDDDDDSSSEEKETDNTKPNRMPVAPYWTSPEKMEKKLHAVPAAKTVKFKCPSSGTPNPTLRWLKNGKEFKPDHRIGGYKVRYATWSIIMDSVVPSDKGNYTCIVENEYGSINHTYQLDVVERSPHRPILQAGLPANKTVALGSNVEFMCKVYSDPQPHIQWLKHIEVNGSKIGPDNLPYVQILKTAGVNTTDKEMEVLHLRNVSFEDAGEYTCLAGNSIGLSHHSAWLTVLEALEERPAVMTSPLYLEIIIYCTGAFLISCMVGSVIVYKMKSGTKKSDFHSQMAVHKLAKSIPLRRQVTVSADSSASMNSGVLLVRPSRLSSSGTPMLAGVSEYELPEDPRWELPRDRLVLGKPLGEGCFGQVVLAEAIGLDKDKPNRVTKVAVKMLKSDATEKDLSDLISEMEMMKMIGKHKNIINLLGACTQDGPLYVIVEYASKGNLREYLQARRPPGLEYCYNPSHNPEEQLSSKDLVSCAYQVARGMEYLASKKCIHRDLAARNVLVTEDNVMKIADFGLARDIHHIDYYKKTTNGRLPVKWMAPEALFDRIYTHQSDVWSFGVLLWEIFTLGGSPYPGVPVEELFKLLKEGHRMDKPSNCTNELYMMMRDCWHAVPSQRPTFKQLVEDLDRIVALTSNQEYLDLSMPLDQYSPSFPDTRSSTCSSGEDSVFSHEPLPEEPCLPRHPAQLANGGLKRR
UniProt P21802, whole entry, looked up: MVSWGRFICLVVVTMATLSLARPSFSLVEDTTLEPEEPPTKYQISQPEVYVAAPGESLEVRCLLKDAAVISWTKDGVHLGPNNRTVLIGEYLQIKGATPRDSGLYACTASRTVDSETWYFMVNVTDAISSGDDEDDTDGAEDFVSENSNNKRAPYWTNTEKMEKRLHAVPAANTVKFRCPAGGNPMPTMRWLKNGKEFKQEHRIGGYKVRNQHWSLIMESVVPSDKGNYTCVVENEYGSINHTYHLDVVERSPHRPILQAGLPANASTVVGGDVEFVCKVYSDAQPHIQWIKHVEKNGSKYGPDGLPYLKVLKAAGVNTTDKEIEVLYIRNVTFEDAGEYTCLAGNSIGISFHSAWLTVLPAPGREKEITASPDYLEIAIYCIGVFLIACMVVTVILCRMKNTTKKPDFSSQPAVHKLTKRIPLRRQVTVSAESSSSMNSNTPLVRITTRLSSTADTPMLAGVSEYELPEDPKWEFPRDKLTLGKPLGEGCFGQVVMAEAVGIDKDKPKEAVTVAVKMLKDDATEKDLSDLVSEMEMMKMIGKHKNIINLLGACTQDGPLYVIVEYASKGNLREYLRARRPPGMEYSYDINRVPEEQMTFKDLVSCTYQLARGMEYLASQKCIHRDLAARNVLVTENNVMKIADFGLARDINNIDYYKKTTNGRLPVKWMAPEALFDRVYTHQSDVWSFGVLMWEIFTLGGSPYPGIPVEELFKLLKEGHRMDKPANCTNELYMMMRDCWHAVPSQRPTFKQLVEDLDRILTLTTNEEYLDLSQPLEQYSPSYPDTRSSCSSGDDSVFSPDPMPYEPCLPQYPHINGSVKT
UniProt P22607, whole entry, looked up: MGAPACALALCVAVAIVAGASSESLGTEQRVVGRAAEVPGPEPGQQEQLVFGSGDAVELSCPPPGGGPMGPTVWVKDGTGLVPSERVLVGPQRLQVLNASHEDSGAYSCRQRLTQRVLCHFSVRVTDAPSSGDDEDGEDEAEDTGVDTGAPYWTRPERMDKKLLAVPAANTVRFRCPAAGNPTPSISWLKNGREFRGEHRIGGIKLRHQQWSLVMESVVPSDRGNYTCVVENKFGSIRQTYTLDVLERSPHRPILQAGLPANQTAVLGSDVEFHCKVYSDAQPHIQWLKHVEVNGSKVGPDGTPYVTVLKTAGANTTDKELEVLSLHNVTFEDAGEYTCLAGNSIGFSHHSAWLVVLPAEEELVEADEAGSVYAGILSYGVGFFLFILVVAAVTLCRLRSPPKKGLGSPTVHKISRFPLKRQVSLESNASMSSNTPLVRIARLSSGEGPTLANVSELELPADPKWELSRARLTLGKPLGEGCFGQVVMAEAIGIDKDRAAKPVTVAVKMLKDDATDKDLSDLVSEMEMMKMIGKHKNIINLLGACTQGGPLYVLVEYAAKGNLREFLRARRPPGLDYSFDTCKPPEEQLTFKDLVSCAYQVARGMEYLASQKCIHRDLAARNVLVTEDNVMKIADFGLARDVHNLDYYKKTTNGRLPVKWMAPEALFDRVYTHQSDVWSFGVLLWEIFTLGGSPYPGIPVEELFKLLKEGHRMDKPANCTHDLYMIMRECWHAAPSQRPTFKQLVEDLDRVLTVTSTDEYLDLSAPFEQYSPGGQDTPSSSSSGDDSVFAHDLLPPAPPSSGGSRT
UniProt P36888, whole entry: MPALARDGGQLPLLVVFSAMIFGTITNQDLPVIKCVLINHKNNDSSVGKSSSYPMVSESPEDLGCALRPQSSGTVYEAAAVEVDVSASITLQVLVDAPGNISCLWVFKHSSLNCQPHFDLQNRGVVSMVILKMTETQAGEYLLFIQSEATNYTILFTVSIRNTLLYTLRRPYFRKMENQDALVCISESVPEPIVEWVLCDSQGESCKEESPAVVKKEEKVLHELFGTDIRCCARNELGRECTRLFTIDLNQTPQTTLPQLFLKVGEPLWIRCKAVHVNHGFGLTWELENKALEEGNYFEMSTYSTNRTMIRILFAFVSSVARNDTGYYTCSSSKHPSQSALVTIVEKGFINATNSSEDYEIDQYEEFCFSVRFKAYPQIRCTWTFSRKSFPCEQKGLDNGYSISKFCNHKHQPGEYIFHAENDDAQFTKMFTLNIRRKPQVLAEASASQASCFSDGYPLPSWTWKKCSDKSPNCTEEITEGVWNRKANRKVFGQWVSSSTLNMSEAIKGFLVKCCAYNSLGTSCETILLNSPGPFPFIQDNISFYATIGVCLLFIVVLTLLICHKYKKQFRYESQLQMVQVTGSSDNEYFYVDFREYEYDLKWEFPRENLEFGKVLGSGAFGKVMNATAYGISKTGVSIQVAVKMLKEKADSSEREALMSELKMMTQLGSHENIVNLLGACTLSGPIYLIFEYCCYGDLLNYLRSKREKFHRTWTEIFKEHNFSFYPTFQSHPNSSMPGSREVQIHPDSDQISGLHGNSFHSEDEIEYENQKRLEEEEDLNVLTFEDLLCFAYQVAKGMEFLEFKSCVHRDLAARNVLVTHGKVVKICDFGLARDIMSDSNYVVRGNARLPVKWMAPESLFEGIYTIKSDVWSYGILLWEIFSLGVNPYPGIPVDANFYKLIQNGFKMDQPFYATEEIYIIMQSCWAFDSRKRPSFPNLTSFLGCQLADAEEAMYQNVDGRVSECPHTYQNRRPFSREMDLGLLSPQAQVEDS
UniProt P49840: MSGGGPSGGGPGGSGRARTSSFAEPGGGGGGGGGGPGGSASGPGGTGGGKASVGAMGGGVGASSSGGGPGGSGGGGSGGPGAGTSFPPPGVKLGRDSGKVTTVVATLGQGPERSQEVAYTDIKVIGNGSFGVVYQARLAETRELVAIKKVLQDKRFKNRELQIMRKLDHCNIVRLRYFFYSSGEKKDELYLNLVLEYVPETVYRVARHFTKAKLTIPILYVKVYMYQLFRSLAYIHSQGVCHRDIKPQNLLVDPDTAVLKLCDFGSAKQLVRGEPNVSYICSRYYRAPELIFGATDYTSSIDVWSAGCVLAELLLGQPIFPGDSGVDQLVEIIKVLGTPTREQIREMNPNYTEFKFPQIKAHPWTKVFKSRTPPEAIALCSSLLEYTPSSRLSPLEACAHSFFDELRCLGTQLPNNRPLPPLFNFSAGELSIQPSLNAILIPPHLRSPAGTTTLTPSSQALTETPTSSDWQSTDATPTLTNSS
UniProt P14616: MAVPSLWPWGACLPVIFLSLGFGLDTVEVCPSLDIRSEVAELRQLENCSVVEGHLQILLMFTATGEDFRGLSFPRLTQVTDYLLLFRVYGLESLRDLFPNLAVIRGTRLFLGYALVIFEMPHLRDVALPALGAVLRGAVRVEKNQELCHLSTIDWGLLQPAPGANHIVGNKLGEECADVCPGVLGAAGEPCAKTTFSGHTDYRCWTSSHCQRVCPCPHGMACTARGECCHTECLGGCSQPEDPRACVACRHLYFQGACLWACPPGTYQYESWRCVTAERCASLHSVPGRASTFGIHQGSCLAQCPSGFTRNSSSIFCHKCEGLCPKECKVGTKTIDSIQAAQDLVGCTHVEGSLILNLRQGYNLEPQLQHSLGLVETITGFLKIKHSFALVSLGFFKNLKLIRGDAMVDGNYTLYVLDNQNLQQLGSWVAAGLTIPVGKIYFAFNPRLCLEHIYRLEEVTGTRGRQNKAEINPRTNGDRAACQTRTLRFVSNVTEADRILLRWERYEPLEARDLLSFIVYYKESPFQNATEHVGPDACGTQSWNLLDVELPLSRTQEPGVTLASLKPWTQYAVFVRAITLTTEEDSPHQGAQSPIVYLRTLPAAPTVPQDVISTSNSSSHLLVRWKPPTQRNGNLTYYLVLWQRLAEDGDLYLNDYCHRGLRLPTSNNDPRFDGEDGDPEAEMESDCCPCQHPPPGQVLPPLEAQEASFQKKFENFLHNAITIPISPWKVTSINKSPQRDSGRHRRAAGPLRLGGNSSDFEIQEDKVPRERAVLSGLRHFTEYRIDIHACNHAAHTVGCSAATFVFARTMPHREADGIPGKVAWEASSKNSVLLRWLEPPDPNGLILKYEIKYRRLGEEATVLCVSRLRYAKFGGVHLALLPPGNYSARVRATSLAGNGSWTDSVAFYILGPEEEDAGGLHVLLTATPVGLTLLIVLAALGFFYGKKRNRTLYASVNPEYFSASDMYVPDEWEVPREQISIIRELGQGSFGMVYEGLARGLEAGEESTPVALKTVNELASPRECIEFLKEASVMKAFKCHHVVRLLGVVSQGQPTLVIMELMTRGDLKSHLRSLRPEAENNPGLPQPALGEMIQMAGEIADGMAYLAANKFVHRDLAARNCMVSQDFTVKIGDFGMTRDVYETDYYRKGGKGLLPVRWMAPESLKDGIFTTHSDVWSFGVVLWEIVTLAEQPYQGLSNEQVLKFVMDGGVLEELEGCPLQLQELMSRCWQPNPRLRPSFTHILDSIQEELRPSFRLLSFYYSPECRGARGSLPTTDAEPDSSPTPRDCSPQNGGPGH

Measured: kinase-Nluc reporter destabilization hit call

COc1cc(C(=O)N2CCC(N3CCN(C)CC3)CC2)ccc1Nc1ncc2c(n1)N(C)c1ccccc1C(=O)N2C (10 µM)
inactive: ERN1 = 0 | FGFR1 = 0 | FGFR2 = 0 | FGFR3 = 0 | FGR 0 | FLT3 = 0 | FYN 0 | GSK3A 0 | HER2 = 0 | INSRR 0

O=C(O)c1cc(O)c2c(c1)[C@@H]([C@H]1c3cc(C(=O)O)cc(O)c3C(=O)c3c(O[C@@H]4O[C@H](CO)[C@@H](O)[C@H](O)[C@H]4O)cccc31)c1cccc(O[C@@H]3O[C@H](CO)[C@@H](O)[C@H](O)[C@H]3O)c1C2=O [Sennoside B] (2.5 µM)
inactive: ERN1 = 0 | FGFR1 = 0 | FGFR2 = 0 | FGFR3 = 0 | FGR 0 | FLT3 = 0 | FYN 0 | GSK3A 0 | HER2 = 0 | INSRR 0

C[C@H]1Cc2ccccc2N1C(=O)Cc1nc(N2CCOCC2)cc(=O)[nH]1 (2.5 µM)
inactive: ERN1 = 0 | FGFR1 = 0 | FGFR2 = 0 | FGFR3 = 0 | FGR 0 | FLT3 = 0 | FYN 0 | GSK3A 0 | HER2 = 0 | INSRR 0

Cc1cc(Nc2nc(N[C@@H](C)c3ncc(F)cn3)ncc2Cl)[nH]n1 (10 µM)
inactive: ERN1 = 0 | FGFR1 = 0 | FGFR2 = 0 | FGFR3 = 0 | FGR 0 | FLT3 = 0 | FYN 0 | GSK3A 0 | HER2 = 0 | INSRR 0

NCCCCCCNS(=O)(=O)c1cccc2c(Cl)cccc12 [W-7 (hydrochloride)] (10 µM)
inactive: ERN1 = 0 | FGFR1 = 0 | FGFR2 = 0 | FGFR3 = 0 | FGR 0 | FLT3 = 0 | FYN 0 | GSK3A 0 | HER2 = 0 | INSRR 0

O=C1NCCCc2c1oc1ccc(O)cc21 (10 µM)
inactive: ERN1 = 0 | FGFR1 = 0 | FGFR2 = 0 | FGFR3 = 0 | FGR 0 | FLT3 = 0 | FYN 0 | GSK3A 0 | HER2 = 0 | INSRR 0

COc1cc(N2CCC(N3CCN(C)CC3)CC2)ccc1Nc1nc2c(c(Nc3ccccc3S(=O)(=O)NC(C)C)n1)CCN2 [Conteltinib] (10 µM)
inactive: ERN1 = 0 | FGFR1 = 0 | FGFR2 = 0 | FGFR3 = 0 | FGR 0 | FLT3 = 0 | FYN 0 | GSK3A 0 | HER2 = 0 | INSRR 0

Source: the supplement of paper PMC12823440, “Inhibitors supercharge kinase turnover through native proteolytic circuits” (Nature, 2025)
